The target in the experiment is T1, caveolin-2 (human (endogenous in MDA-MB231)) (UniProt P51636).
T1 sequence: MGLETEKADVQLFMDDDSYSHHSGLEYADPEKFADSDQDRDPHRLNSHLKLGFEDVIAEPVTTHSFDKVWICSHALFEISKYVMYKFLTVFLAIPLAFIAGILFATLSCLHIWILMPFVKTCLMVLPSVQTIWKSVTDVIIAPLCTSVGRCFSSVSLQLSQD
Briefly: co-IP; MDA-MB231 lysates (20 mM HEPES pH 7.5, 150 mM NaCl, 1% Triton X-100, 2 mM EDTA), pre-cleared, incubated with caveolin-2 antibody (rabbit IgG as control) overnight at 4°C, protein A-agarose, immunoblot; cells untreated or treated with chondroitin sulfate or heparan sulfate. In general terms: In western blotting, separated proteins are transferred to a membrane and probed.

Amino acid sequences for entries named in this document (tags omitted). Residues count along the entry.
UniProt P34741, residues 19-201: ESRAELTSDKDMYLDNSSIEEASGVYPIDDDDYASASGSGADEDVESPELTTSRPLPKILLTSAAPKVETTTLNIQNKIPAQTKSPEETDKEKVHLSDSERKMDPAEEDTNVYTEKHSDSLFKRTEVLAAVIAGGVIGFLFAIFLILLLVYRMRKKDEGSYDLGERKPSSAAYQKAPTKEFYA

Results are given in words; binding and its absence hold for the method and conditions named. Binding seen in cells or lysates may run through a third protein. Some entries that bind do so weakly or less than the wild type.

With syndecan-2 (from UniProt P34741 19-201), the binding entry is “binds”.

B1: syndecan-4 (protein, UniProt P31431 19-198)
chain: ESIRETEVIDPQDLLEGRYFSGALPDDEDVVGPGQESDDFELSGSGDLDDLEDSMIGPEVVHPLVPLDNHIPERAGSGSQVPTEPKKLEENEVIPKRISPVEESEDVSNKVSMSSTVQGSNIFERTEVLAALIVGGIVGILFAVFLILLLMYRMKKKDEGSYDLGKKPIYKKAPTNEFYA
Take B1: the binding entry was “no binding”.
